Results are given in words; binding and its absence hold for the method and conditions named. Binding seen in cells or lysates may run through a third protein. Some results given as binding are weak or reduced against the parent protein; the word gives no strength. Where a sequence is shown, tags or fusion partners need not be part of it.
B1: FLAG-tagged NF-κB2 p100 (protein, UniProt Q00653-1 1-900)
chain: MESCYNPGLDGIIEYDDFKLNSSIVEPKEPAPETADGPYLVIVEQPKQRGFRFRYGCEGPSHGGLPGASSEKGRKTYPTVKICNYEGPAKIEVDLVTHSDPPRAHAHSLVGKQCSELGICAVSVGPKDMTAQFNNLGVLHVTKKNMMGTMIQKLQRQRLRSRPQGLTEAEQRELEQEAKELKKVMDLSIVRLRFSAFLRASDGSFSLPLKPVISQPIHDSKSPGASNLKISRMDKTAGSVRGGDEVYLLCDKVQKDDIEVRFYEDDENGWQAFGDFSPTDVHKQYAIVFRTPPYHKMKIERPVTVFLQLKRKRGGDVSDSKQFTYYPLVEDKEEVQRKRRKALPTFSQPFGGGSHMGGGSGGAAGGYGGAGGGGSLGFFPSSLAYSPYQSGAGPMGCYPGGGGGAQMAATVPSRDSGEEAAEPSAPSRTPQCEPQAPEMLQRAREYNARLFGLAQRSARALLDYGVTADARALLAGQRHLLTAQDENGDTPLHLAIIHGQTSVIEQIVYVIHHAQDLGVVNLTNHLHQTPLHLAVITGQTSVVSFLLRVGADPALLDRHGDSAMHLALRAGAGAPELLRALLQSGAPAVPQLLHMPDFEGLYPVHLAVRARSPECLDLLVDSGAEVEATERQGGRTALHLATEMEELGLVTHLVTKLRANVNARTFAGNTPLHLAAGLGYPTLTRLLLKAGADIHAENEEPLCPLPSPPTSDSDSDSEGPEKDTRSSFRGHTPLDLTCSTKVKTLLLNAAQNTMEPPLTPPSPAGPGLSLGDTALQNLEQLLDGPEAQGSWAELAERLGLRSLVDTYRQTTSPSGSLLRSYELAGGDLAGLLEALSDMGLEEGVRLLRGPETRDKLPSTAEVKEDSAYGSQSVEQEAEKLGPPPEPPGGLCHGHPQPQVH
B2: FLAG-tagged NF-κB2 p52 (protein, UniProt Q00653 1-454)
chain: MESCYNPGLDGIIEYDDFKLNSSIVEPKEPAPETADGPYLVIVEQPKQRGFRFRYGCEGPSHGGLPGASSEKGRKTYPTVKICNYEGPAKIEVDLVTHSDPPRAHAHSLVGKQCSELGICAVSVGPKDMTAQFNNLGVLHVTKKNMMGTMIQKLQRQRLRSRPQGLTEAEQRELEQEAKELKKVMDLSIVRLRFSAFLRASDGSFSLPLKPVISQPIHDSKSPGASNLKISRMDKTAGSVRGGDEVYLLCDKVQKDDIEVRFYEDDENGWQAFGDFSPTDVHKQYAIVFRTPPYHKMKIERPVTVFLQLKRKRGGDVSDSKQFTYYPLVEDKEEVQRKRRKALPTFSQPFGGGSHMGGGSGGAAGGYGGAGGGGSLGFFPSSLAYSPYQSGAGPMGCYPGGGGGAQMAATVPSRDSGEEAAEPSAPSRTPQCEPQAPEMLQRAREYNARLFGLA

Protein sequences, listed by entry. Tags and fused reporters are not part of them. Lines headed by an entry give the natural chain unless they say otherwise; changes in a name come on top.
UniProt Q9UBN7: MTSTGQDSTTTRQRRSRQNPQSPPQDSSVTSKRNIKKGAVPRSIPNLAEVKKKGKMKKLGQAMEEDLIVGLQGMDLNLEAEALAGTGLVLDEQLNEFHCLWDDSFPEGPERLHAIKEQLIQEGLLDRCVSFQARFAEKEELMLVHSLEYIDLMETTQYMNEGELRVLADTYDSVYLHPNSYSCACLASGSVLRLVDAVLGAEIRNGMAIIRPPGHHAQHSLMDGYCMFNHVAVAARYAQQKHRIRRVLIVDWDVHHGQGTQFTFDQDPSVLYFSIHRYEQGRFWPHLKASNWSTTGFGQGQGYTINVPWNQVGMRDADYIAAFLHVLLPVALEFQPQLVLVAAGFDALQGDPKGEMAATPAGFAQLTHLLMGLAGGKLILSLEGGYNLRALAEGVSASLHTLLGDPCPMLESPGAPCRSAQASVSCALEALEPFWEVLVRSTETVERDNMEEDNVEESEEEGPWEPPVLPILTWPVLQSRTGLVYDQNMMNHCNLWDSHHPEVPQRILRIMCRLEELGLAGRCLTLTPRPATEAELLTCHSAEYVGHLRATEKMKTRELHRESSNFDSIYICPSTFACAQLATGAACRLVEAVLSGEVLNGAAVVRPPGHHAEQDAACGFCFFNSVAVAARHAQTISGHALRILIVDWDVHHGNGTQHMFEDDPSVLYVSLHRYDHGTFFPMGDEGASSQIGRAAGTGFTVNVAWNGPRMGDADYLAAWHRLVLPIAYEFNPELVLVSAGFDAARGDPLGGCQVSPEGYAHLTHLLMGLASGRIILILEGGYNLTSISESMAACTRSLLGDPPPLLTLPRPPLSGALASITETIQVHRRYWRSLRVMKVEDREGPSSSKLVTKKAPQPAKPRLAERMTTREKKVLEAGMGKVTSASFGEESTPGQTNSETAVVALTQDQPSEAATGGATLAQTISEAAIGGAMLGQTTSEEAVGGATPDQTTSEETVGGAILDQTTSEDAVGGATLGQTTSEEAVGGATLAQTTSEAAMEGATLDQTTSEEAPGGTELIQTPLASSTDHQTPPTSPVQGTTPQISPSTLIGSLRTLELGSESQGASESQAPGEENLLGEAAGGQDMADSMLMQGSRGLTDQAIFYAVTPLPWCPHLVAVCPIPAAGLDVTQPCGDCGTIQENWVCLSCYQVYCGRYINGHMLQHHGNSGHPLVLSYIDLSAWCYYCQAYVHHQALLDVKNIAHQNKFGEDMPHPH
UniProt P19838: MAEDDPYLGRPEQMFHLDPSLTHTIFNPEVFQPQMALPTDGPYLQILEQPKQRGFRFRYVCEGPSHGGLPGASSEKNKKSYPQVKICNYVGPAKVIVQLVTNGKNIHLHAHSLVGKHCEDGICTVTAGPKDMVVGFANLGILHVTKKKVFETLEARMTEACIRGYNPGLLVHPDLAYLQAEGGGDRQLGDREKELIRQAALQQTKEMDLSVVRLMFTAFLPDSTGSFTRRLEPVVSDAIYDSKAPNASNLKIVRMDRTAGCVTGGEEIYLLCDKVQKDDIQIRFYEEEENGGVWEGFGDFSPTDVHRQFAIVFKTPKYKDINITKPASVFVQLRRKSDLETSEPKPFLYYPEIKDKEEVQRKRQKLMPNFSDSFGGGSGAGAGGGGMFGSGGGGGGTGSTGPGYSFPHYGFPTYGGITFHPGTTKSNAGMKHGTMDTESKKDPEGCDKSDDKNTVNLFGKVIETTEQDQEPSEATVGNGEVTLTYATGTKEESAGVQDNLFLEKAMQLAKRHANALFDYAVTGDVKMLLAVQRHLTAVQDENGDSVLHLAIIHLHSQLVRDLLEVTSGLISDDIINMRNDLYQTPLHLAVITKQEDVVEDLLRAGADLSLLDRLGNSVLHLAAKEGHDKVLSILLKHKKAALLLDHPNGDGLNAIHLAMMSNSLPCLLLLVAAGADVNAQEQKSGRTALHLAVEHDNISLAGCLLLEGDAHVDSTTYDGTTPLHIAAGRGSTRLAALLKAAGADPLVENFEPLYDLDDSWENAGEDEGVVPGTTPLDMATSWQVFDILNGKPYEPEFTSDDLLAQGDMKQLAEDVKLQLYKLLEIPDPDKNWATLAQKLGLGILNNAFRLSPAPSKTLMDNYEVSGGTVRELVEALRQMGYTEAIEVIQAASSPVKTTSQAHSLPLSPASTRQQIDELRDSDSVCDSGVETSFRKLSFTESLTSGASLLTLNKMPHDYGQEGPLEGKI

biological target: STREP-tagged HDAC6 (UniProt Q9UBN7); experiment: pull-down; FLAG-tagged NF-κB proteins expressed in HEK cells in presence or absence of STREP-tagged HDAC6; HDAC6 pulled down on Strep-Tactin beads; western blot

binding, binds:
FLAG-tagged NF-κB1 p50 (from UniProt P19838 1-433)
FLAG-tagged NF-κB1 p105 (from UniProt P19838 1-968)
B1
B2
